Laboratory results published in patent US9422340B2, “Macrocyclic compounds useful as inhibitors of histone deacetylases” (The Regents of the University of Colorado, A Body Corporate, priority 2010, dated 2016).

Assays:
HCT116 cells = test: DNA microarray gene expression profiles; format: cell-based, human; conditions: SAHA (200 μM), Largazole (20 nM), Example 1 (20 nM)
Source text: FIGS. 9A to C present DNA microarray data showing that SAHA, Largazole and its selected analog example 1 cause distinct changes in gene expression profiles in the HCT 116 cancer cell line. FIG. 9A illustrates hierarchical clustering and heatmaps of changes in gene expression profiles in the HCT116 cells with indicated treatment. FIGS. 9B and 9C illustrate Venn diagrams showing unique and shared gene sets whose expression levels changed by more than 2 fold upon exposure to the indicated treatment at 6 hr (FIG. 9B) and 24 hr (FIG. 9C).
Expression values files for each sample were generated using the Robust Multichip Average (RMA) algorithm. Differential expression was determined using the R software package limma to generate linear models and empirical Bayesian statistics. Genes were considered differentially expressed if the P value, adjusted for multiple testing using the Benjamini and Hochberg method, was ≦5% and the log-2 fold change was […].
HCT116 cells were seeded in triplicate at approximately 60% confluency. […] Total RNA concentration was determined using a Lambda 800 UV/VIS spectrometer (PerkinElmer, Waltham, Mass.) and processed for labeling hybridization, wash, and scan at University of Colorado-Denver Health Sciences Center. […] Differential expression was determined using the R software package limma to generate linear models and empirical Bayesian statistics. […]

[1] = test system: acetylated histone H3 in HCT116 cells; test: Western blot of histone H3 hyperacetylation; format: cell-based, human

O=C(CCCCCCC(=O)Nc1ccccc1)NO [SAHA, suberoylanilide hydroxamic acid]
# of Genes 2 Fold-Change in comparison to DMSO control (HCT116 cells; 6 hr): 338
# of Genes 2 Fold-Change in comparison to DMSO control (HCT116 cells; 24 hr): 34
Inhibition of H3 deacetylation over time (FIG. 8A) ([1]; 10 nM largazole or 200 nM SAHA, anti-acetyl-H3 immunoblot): inhibit H3 deacetylation in a time-dependent manner
Deacetylase inhibition, dose response of H3 acetylation (FIG. 8B) ([1]; 8 hours, concentrations ranging from 1/μM to 100 nM): dose-dependent fashion
